Experimental data published in PMC9182532, “The RHIM of the Immune Adaptor Protein TRIF Forms Hybrid Amyloids with Other Necroptosis-Associated Proteins” (Molecules, 2022).
Results are given in words; binding and its absence hold for the method and conditions named.

Molecular target: mCherry-RIPK1_(497–583) (human) (UniProt Q13546)
Test: SDS-agarose gel electrophoresis (SDS-AGE); 5 µM alone or equimolar mixtures, kept in 8 M urea (monomer control) or dialysed overnight against 100 mM NaH2PO4, 20 mM Tris, 0.5 mM DTT, pH 8.0, with or without 2% SDS for 10 min; 1% agarose gel with 0.1% SDS; YPet and mCherry fluorescence imaged and overlaid; both purified

binding: no binding (condition: with 2% SDS)
B1: mCherry-RIPK1_(497–583) (domain or fragment, human, UniProt Q13546 497-583, looked up)
chain: MPSLHNIPVPETNYLGNTPTMPFSSLPPTDESIKYTIYNSTGIQIGAYNYMEIGGTSSSLLDSTNTNFKEEPAAKYQAIFDNTTSLT
notes: also called RIPK1 RHIM construct; source: E. coli BL21(DE3), solubilised in 8 M urea, purified (Ni-NTA); not shown: mCherry, N-terminal, kept
